This note sets out measurements from PMC5296607.

The target in the test is T1, RFP-PkaR (red fluorescent protein-labeled PkaR regulatory subunit of protein kinase A) (Aspergillus fumigatus) (UniProt Q96UX3).
T1 sequence: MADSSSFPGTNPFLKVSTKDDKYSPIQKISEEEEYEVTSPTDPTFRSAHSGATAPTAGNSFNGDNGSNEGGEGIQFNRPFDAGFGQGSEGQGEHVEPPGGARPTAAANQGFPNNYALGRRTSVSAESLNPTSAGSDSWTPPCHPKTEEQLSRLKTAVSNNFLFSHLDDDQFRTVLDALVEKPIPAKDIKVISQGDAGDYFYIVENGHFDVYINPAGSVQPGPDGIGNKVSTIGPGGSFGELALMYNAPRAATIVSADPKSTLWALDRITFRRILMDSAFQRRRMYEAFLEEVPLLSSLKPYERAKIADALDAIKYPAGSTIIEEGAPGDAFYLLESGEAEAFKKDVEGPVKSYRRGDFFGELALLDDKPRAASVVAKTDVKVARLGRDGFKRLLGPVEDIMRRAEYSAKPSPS
The test is described as follows: co-IP; RFP-Trap (Chromotek) affinity purification of RFP-PkaR from normalized crude extracts of A. fumigatus strains co-expressing GFP-labeled PkaC1 isoforms; Western blot with anti-GFP antibodies; GFP-Trap of the same extracts as control of PkaC1 level. In general terms: Immunoblotting shows a protein as a band on a membrane.

Results are given in words; binding and its absence hold for the method and conditions named. In cells and extracts the contact can be indirect. A result given as binding can be weak or reduced; the word gives no strength.

With “PkaC1-T333A-GFP (GFP-labeled PkaC1 with the T333A substitution) (Aspergillus fumigatus) (enzyme)”, the binding result is given as “binds”.
